The series is described as follows: general procedure: peptide synthesis; Boc-Asn-resin; Boc-Gly-resin; DCC/HONb active esters. The conditions noted are these: coupling step.
Consider Boc-Glu(OBzl)-Asn-Lys(Xys)-Pro-OH, for which the step yield is on record as 69%. The same measure for “Boc-Leu-Tyr-Glu(OBzl)-Asn-Lys(Xys)-Pro-OH”: 88.2%; for Boc-Tyr-Glu(OBzl)-Asn-Lys(Xys)-Pro-OH: 93.4%.

Take “Z-Arg(MBS)-Arg(MBS)-Pro-Tyr-Ile-Leu-Obu^t”: the step yield turned out to be 74.5%. With “Z-pGlu-Leu-Tyr-Glu(OBzl)-Asn-Lys(Xys)-Pro-OH”, the step yield is 85.4%.

For the origin of these results see US4159979 (dated 1979).
